One substance from patent US7112654B2 (Supratek Pharma Inc., priority 2001, dated 2006) can be followed below.

This series can be described thus: general procedure: Fmoc solid-phase peptide synthesis; NovaSyn TGR resin; PyBOP, diisopropylethylamine. The note with it: whole synthesis, scale 0.1 mmol, acetate salt.

As for (H-Lys)8(H-Lys)4(Lys)2LysCysNH2, the isolated mass is 21 mg.
